Among the data in paper PMC6615859 are binding values, retold here.

Protein sequences, listed by entry. Tags and fused reporters are not part of them. Lines headed by an entry give the natural chain unless they say otherwise; changes in a name come on top.
UniProt Q7Z2W4: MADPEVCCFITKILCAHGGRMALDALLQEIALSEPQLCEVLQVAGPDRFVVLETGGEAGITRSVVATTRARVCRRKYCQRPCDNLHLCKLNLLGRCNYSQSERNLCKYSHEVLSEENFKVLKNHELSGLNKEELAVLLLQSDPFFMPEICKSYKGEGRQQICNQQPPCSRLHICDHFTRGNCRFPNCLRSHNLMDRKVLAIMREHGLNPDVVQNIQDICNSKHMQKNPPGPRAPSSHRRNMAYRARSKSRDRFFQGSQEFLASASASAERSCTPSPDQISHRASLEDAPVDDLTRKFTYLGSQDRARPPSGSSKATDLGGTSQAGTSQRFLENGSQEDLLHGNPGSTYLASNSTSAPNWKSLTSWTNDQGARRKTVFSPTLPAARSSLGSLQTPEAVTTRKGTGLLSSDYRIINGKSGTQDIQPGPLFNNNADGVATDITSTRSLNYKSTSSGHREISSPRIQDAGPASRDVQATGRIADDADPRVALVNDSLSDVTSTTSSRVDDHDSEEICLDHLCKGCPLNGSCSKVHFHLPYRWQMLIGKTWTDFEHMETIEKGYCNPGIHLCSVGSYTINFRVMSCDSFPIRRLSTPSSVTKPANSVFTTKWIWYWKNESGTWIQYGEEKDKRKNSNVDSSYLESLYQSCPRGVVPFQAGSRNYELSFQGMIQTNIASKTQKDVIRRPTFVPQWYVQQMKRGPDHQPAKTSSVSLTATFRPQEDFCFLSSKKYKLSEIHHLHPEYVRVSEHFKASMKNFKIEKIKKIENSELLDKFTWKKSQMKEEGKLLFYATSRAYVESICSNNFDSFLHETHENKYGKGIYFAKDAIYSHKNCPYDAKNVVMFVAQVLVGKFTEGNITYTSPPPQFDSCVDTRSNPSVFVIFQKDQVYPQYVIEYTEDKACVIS
UniProt O15037: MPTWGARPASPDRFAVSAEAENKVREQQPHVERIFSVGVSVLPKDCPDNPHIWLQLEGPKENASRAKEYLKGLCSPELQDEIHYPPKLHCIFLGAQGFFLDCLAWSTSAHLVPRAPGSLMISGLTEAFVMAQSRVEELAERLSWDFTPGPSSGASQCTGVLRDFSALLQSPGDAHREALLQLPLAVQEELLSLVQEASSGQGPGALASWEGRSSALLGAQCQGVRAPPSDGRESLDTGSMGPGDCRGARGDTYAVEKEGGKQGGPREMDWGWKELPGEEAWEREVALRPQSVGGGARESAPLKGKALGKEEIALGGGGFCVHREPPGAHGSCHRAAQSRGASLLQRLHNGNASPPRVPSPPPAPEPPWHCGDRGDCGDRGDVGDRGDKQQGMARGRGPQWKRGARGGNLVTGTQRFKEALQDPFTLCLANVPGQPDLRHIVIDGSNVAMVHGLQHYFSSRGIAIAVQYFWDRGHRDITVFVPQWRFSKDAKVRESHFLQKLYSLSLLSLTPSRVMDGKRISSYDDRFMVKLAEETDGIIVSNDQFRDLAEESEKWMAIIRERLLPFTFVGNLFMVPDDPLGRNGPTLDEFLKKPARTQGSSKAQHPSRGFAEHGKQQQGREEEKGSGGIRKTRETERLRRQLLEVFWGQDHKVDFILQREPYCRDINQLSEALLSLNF
UniProt Q14258: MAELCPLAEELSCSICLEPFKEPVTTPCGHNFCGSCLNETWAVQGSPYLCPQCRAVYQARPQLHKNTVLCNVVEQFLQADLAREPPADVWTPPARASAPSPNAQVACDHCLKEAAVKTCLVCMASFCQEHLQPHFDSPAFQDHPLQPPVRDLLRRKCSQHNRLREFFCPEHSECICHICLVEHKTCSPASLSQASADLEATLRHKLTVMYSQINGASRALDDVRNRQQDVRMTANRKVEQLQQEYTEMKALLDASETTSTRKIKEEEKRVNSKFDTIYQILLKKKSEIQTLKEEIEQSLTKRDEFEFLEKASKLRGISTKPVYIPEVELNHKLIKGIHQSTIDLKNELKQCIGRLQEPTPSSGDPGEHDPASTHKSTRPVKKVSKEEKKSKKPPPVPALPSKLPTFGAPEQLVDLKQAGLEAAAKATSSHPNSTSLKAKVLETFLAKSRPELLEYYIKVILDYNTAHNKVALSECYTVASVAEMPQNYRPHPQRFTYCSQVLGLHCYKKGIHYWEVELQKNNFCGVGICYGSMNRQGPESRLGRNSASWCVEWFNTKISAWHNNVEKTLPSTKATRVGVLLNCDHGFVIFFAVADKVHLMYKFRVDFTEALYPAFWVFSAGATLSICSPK

Results are given in words; binding and its absence hold for the method and conditions named. Binding seen in cells or lysates may run through a third protein. Some results given as binding are weak or reduced against the parent protein; the word gives no strength.

Assay [1] deals with ZAP-L, endogenous in HEK293T cells (human (endogenous in HEK293T)) (UniProt Q7Z2W4). Briefly: co-IP; anti-ZAP antibody (Abcam) and Protein G Dynabeads on post-nuclear supernatants of HEK293T cells transfected with KHNYN-FLAG; blot for FLAG; lysis buffer 0.5% NP-40, 150 mM KCl, 10 mM HEPES pH 7.5, 3 mM MgCl2; 4°C.
In assay [2] the target is KHNYN-1-FLAG (human) (UniProt O15037). Kind of assay: co-IP; anti-FLAG antibody and Protein G Dynabeads on post-nuclear supernatants of HEK293T cells transfected with KHNYN-FLAG; blots for ZAP and TRIM25; lysis buffer 0.5% NP-40, 150 mM KCl, 10 mM HEPES pH 7.5, 3 mM MgCl2; 4°C; also in Control, TRIM25 CRISPR and ZAP CRISPR HEK293T cells.
Assay [3] has the same target. Briefly: co-IP; HEK293T cells transfected with pHA-ZAP-L and KHNYN-FLAG; post-nuclear supernatant treated with RNase A for 30 min at 37°C, then anti-FLAG antibody and Protein G Dynabeads; blot for ZAP.

As to “KHNYN-1-FLAG (from UniProt O15037 1-678)”, in assay [1], the binding entry is reported as “binds”.
“ZAP-L, endogenous in HEK293T cells (from UniProt Q7Z2W4-1 1-902)”: the binding entry in assay [2] is reported as “binds”.
With “TRIM25, endogenous in HEK293T cells (from UniProt Q14258 1-630)”, the binding entry in assay [2] is recorded as “binds”.
Take HA-ZAP-L (from UniProt Q7Z2W4-1 1-902): the binding entry in assay [3] is “binds”.
